Source: the supplement of paper PMC10849652
This is one part of the list.

By UniProt entry, the sequences of proteins in these tests, tags left out. Where a name states a change or a piece, a line headed by the entry shows the natural chain unless it says otherwise.
UniProt Q96EX1: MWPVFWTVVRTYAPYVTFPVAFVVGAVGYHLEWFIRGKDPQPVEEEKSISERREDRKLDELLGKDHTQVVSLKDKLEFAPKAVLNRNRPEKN
UniProt O14508, whole entry, looked up: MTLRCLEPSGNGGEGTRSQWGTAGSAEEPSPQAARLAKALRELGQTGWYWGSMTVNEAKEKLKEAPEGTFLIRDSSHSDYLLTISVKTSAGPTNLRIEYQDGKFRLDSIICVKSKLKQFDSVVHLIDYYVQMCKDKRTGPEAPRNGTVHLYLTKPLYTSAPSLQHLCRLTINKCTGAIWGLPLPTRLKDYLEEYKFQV
UniProt P62316, whole entry, looked up: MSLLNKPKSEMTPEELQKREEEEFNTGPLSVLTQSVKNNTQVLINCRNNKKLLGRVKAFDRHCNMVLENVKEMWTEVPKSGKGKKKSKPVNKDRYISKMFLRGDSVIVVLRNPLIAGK
UniProt O00161: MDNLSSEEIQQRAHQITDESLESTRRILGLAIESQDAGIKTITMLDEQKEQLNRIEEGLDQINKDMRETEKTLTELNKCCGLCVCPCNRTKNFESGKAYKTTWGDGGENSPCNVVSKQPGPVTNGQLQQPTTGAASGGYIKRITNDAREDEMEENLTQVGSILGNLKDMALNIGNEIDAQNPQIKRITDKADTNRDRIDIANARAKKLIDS
UniProt P62306, whole entry, looked up: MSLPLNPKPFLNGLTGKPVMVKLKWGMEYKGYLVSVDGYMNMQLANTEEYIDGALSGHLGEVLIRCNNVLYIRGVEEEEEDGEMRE
UniProt Q15506: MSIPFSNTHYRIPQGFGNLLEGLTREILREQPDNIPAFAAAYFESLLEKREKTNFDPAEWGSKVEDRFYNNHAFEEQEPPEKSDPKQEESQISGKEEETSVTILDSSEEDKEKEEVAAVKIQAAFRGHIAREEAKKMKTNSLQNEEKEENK
UniProt P08621, whole entry, looked up: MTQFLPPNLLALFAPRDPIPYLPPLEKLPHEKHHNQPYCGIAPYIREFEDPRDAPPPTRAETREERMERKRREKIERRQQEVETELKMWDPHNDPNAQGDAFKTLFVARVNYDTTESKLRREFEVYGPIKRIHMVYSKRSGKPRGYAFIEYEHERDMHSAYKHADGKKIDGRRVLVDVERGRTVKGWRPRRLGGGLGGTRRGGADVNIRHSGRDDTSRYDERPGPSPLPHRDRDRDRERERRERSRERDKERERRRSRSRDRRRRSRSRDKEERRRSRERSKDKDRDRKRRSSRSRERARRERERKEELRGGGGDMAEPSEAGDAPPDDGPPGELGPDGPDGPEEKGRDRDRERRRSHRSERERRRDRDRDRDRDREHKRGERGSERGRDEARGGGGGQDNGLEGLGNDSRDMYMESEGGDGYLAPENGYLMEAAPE
UniProt Q9NTJ3, whole entry, looked up: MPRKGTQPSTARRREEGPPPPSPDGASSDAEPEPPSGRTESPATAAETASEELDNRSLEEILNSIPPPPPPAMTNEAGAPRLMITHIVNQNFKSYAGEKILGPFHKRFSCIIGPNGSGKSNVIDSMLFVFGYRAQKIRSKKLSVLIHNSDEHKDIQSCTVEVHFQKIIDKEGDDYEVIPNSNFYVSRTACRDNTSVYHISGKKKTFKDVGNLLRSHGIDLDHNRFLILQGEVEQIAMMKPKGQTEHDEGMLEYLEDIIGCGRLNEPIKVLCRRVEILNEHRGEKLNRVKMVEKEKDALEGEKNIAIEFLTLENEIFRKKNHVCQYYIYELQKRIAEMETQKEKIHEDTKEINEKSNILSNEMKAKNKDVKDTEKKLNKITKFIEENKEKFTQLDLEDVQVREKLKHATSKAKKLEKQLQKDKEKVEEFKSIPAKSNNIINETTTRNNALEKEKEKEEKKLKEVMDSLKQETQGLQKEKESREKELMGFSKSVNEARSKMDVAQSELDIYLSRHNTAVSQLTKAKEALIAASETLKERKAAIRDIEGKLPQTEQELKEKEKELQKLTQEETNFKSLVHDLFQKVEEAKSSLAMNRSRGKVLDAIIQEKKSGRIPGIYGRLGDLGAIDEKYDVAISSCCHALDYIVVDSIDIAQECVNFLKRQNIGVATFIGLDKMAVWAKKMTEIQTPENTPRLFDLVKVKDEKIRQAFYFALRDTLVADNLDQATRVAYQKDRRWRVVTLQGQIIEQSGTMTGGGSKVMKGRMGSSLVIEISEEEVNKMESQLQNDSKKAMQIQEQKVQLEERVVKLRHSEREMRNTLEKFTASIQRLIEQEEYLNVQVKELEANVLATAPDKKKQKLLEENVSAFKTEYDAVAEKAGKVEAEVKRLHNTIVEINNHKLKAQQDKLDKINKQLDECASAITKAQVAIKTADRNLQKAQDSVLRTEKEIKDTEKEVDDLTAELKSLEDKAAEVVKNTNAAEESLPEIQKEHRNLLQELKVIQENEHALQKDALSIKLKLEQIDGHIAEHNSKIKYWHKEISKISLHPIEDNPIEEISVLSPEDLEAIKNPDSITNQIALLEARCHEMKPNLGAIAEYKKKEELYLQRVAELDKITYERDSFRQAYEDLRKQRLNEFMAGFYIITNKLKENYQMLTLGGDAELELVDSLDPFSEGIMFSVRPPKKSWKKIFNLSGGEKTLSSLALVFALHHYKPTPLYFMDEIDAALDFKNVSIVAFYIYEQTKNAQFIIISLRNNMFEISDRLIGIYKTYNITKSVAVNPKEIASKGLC
UniProt Q9UQE7: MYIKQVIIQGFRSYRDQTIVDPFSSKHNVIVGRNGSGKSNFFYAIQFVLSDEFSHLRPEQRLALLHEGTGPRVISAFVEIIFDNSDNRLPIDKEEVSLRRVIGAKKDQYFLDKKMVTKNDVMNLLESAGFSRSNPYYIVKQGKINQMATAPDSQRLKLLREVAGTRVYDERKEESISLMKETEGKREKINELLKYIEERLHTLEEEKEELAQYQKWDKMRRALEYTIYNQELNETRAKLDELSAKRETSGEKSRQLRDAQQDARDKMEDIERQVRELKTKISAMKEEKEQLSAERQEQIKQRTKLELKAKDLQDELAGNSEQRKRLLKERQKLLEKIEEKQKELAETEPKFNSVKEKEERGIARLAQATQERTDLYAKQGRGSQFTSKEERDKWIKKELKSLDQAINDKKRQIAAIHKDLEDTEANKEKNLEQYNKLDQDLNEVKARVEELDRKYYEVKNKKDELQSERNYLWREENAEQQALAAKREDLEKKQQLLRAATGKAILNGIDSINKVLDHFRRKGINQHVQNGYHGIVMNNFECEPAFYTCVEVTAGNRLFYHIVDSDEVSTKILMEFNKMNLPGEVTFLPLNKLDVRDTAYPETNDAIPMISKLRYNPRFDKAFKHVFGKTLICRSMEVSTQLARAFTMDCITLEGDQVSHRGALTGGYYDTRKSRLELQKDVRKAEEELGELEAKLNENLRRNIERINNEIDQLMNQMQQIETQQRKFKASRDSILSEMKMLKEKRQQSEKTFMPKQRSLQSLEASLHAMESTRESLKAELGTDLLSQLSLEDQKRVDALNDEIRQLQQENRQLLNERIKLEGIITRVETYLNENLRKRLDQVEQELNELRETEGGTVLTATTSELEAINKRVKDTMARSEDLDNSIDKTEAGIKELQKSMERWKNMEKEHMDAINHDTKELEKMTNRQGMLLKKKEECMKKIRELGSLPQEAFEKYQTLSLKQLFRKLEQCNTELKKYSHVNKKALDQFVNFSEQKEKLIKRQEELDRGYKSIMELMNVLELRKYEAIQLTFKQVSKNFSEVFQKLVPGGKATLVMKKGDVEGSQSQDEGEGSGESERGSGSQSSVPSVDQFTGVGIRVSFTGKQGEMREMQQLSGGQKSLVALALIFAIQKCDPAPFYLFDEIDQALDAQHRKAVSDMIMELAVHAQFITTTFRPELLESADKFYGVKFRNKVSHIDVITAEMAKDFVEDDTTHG
UniProt Q14BN4: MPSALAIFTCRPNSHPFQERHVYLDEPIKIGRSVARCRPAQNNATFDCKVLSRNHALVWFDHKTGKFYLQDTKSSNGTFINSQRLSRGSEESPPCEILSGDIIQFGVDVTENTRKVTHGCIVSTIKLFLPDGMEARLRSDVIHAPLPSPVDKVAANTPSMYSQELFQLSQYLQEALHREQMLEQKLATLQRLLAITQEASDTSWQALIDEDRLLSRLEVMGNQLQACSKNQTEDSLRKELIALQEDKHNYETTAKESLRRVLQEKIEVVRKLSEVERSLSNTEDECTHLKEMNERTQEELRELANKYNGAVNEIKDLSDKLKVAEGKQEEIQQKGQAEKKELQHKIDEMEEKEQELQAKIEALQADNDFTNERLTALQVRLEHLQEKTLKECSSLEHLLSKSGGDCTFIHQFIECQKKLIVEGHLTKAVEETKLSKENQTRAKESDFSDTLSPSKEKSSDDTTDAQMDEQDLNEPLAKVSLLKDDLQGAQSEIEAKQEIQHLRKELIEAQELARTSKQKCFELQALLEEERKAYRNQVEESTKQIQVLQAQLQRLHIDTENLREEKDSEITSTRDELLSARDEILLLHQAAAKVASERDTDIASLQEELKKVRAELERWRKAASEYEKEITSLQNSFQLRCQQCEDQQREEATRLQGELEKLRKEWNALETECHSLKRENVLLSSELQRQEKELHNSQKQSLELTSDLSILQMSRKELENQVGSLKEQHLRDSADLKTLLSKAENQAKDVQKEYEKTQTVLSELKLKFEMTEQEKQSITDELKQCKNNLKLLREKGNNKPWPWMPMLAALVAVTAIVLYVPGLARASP
UniProt P62308, whole entry, looked up: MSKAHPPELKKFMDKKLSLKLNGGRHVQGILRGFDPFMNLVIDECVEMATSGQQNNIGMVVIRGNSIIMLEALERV
UniProt O95721: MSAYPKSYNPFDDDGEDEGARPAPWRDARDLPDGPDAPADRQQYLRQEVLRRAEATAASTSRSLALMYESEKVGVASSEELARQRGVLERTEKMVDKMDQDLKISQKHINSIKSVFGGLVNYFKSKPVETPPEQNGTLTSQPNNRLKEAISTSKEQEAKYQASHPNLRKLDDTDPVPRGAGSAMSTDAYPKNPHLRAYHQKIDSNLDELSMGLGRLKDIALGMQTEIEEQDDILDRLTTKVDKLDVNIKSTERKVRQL
UniProt P28370, whole entry, looked up: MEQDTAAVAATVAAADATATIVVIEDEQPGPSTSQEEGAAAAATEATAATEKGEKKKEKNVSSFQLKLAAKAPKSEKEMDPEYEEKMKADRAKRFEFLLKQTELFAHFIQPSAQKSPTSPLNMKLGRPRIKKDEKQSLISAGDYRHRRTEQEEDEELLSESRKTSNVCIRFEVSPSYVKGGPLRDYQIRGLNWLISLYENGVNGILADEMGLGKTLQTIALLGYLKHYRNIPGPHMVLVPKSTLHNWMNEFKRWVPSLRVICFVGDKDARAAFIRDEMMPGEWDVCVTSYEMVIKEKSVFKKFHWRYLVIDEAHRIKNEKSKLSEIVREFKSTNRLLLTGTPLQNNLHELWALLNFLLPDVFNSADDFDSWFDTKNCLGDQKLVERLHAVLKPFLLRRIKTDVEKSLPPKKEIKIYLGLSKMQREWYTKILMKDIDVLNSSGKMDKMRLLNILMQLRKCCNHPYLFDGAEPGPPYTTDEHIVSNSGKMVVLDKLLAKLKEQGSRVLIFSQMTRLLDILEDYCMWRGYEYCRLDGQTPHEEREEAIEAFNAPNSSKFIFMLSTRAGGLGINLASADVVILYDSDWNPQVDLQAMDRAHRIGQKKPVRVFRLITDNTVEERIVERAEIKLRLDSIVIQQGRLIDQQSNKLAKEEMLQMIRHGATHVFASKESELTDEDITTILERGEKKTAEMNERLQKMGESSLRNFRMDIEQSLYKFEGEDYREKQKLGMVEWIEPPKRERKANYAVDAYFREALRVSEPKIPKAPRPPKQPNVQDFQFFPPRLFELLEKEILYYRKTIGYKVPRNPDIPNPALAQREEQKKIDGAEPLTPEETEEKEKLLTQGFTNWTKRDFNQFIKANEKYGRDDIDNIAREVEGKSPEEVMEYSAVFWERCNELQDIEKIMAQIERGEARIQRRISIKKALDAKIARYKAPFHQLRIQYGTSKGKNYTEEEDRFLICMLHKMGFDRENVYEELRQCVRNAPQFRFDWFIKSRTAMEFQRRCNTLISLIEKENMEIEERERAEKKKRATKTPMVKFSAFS
UniProt Q15599: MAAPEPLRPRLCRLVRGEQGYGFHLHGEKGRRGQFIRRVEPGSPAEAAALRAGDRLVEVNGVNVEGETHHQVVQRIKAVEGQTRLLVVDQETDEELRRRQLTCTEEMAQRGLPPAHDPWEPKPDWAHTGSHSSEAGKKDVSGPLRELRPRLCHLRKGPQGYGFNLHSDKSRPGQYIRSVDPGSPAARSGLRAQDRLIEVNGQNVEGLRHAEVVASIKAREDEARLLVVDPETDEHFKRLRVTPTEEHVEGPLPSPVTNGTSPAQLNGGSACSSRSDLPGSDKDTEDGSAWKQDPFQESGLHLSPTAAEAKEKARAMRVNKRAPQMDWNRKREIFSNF
UniProt P09234, whole entry, looked up: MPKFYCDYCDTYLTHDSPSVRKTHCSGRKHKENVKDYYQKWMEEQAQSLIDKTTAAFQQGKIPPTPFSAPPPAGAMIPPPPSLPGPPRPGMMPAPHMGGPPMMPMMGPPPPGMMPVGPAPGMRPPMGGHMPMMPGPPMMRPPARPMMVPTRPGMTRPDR
UniProt P62304, whole entry, looked up: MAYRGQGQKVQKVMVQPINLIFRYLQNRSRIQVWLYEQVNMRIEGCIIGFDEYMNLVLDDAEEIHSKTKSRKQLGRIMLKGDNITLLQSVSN

These targets were tested with NC(=O)Nc1cc(-c2cccc(F)c2)sc1C(=O)N[C@H]1CCCNC1 (assay: log2 fold change, soluble protein after heating vs DMSO (PISA); higher = thermal stabilisation; K562 cells, 10 uM, 30 min; active = over 0.2 and 3.5 SD of the protein, either way, in both replicates (recomputed)).
Summary of the method: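 Thermal stability values are relative to control samples and come from duplicates. They are expressed as log2 fold changes. For measurement, K562 cells (2×10^6 cells/mL) received 10 μM compound for 30 min, and aliquots were heated for 3 min over 48°C-58°C, pooled, and extracted at 4°C in PBS with 0.5% NP-40. Soluble protein, the supernatant after 21,000xg for 90 min, was quantified by TMTpro 16plex LC-MS/MS with equalised channel sums.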

log2 fold change, inactive:
SMARCC2 (UniProt Q8TAQ2) 0.085
SNF8 (UniProt Q96H20) -0.008
SNCA (UniProt P37840) 0.023
SMS (UniProt P52788) -0.003
SMARCC1 (UniProt Q92922) -0.006
SLC9A1 (UniProt P19634) -0.019
SMIM12 (UniProt Q96EX1) 0.012
SMC2 (UniProt O95347) -0.058
SNU13, A0A3B3IUA2 -0.005
SMU1 (UniProt Q2TAY7) 0.022
SOCS2 (UniProt O14508) -0.068
SND1 (UniProt Q7KZF4) 0.181
SNRPD2 (UniProt P62316) 0.007
SNAP23 (UniProt O00161) -0.018
SNRPF (UniProt P62306) 0.021
SPA17 (UniProt Q15506) -0.083
SNRNP70 (UniProt P08621) -0.042
SLCO4A1 (UniProt Q96BD0) 0.034
SMC4 (UniProt Q9NTJ3) -0.053
SNRPA1 (UniProt P09661) 0.12
SMN1 (UniProt Q16637) 0
SMIM8 (UniProt Q96KF7) -0.009
SNRPC (UniProt Q5TAL2) 0.108
SMC3 (UniProt Q9UQE7) -0.02
SMC1A (UniProt Q14683) -0.012
SPAG5 (UniProt Q96R06) 0.056
SNRNP200 (UniProt O75643) 0.017
SLMAP (UniProt Q14BN4) 0.017
SNRPG (UniProt P62308) 0.043
SNAP29 (UniProt O95721) 0.022
SNRPA (UniProt P09012) 0.016
SMC6 isoform 2 (UniProt Q96SB8) 0.036
SMC1B isoform 3 (UniProt Q8NDV3) -0.033
SMIM26, A0A096LP01 -0.003
SMARCA1 (UniProt P28370) -0.055
SLC9A3R2 (UniProt Q15599) -0.009
SNRPC (UniProt P09234) -0.004
SNRPE (UniProt P62304) -0.006
SNAPIN (UniProt O95295) -0.06
SMYD5 (UniProt Q6GMV2) 0.03

Random excerpt: 2 entries already listed
log2 fold change, inactive:
SMC6 isoform 2 (UniProt Q96SB8) 0.036
SNRPE (UniProt P62304) -0.006
